Measured values reported in publication doi:10.1101/2020.09.30.319939.
These are yes or no findings as the source states them, for the method shown. In cells and extracts the contact can be indirect. Some entries that bind do so weakly or less than the wild type.

Molecular target: T1, Slt2p-3HA (S. cerevisiae) (UniProt Q00772)
T1 sequence: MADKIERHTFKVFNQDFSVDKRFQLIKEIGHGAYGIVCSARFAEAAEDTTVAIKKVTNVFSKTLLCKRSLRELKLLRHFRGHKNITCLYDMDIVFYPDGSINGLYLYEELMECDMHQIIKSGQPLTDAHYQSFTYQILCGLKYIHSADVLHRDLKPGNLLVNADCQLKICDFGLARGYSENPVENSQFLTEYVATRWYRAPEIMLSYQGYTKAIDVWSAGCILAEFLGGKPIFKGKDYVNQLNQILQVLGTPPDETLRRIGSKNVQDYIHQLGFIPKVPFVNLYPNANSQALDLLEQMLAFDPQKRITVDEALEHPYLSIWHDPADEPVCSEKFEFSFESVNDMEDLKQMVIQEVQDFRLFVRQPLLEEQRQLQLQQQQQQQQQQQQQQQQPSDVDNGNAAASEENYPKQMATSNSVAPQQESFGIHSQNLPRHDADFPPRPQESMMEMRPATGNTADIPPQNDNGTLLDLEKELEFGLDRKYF
Assay: co-IP

B1: Rbp1p (endogenous) (protein, UniProt P32831 1-672)
chain: MMSNVANASQRQENPYIIPLPPSSTVETSTEPPRTLWMGDLDPSFDEATIEEIWSKLDKKVIVKLIRAKKNLLIPCSSTSSSNNNTSEENAENQQSASNSTDQLDNSQMININGISFIDPSTTQLHHAGYCFVEFETQKDAKFALSLNATPLPNFYSPTTNSQTNPTFKRTFRLNWASGATLQSSIPSTPEFSLFVGDLSPTATEADLLSLFQTRFKSVKTVRVMTDPLTGSSRCFGFVRFGDEDERRRALIEMSGKWFQGRALRVAYATPRNNMMLQLQEQQQQQQQLQQQHQQLDQEDNNGPLLIKTANNLIQNNSNMLPLNALHNAPPMHLNEGGISNMRVNDSLPSNTYNTDPTNTTVFVGGLVPKTTEFQLRSLFKPFGPILNVRIPNGKNCGFVKFEKRIDAEASIQGLQGFIVGGSPIRLSWGRPSSSNAKTNSTIMGASQYMSSNGLRAPSAASSVDNSKQILEQYAEDKRRLFLHQQQQQQQQQQQDGNFSMEQMAHNNYYNYNNYDYHRNKNGSHSDLVNLQRSNVPYMQEDGALYPHQYSSPSYSLHPTGNQFSNATNNLPQFGNAMSISMQLPNGNSNKTASSMNTNPNTNMIMNSNMNMNMNVNPVPYGMGNGANMYDVSRMMTPPLNIAPNSNNSKSSIMNKHPNRNNVPPIHPSLLH
- binding: binds
